The experiment concerns the target T1, FLAG-tagged full-length FLII (FLII FL) (UniProt Q13045).
T1 sequence: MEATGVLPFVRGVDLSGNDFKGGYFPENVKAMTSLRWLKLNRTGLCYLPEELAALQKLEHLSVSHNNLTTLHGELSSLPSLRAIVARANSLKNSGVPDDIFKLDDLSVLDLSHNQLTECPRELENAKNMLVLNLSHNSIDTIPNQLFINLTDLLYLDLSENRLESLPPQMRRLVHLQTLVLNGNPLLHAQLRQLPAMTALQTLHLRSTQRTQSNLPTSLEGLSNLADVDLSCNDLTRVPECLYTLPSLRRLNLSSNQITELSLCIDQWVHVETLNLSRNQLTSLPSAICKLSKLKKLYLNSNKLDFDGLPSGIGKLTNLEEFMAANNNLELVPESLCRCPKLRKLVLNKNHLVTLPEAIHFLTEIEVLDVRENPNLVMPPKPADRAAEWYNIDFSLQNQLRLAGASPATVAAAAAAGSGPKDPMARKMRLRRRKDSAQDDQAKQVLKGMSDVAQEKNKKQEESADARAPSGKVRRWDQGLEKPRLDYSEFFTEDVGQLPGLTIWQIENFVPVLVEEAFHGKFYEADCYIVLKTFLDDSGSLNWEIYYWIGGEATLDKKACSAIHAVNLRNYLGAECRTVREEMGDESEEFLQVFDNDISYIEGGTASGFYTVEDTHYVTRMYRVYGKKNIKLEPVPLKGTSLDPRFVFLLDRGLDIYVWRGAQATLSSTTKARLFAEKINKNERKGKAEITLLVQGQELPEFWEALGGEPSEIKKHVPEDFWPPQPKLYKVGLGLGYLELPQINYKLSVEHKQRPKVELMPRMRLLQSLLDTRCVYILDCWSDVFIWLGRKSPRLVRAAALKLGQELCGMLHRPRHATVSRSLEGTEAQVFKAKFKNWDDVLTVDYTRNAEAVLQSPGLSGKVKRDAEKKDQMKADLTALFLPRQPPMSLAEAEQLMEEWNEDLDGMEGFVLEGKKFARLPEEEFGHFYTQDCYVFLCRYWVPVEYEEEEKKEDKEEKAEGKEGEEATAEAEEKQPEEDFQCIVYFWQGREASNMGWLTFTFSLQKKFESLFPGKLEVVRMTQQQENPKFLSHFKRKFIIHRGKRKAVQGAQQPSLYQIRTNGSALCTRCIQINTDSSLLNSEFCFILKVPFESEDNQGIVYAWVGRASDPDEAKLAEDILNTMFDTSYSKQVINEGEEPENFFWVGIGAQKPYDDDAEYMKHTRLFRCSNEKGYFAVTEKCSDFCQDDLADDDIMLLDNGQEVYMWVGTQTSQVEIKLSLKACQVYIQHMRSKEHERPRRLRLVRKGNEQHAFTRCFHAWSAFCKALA
The experiment is described as follows: co-IP; FLAG immunoprecipitation on anti-FLAG M2 affinity gel from HEK293T lysates co-expressing FLAG-tagged FLII (FL or domain mutants) and a GEF, 75 min at 4 °C, 3xFLAG peptide elution, western blot. Background: Immunoblotting shows a protein as a band on a membrane.

Chains of the proteins cited; added tags and fusions are not shown. Lines headed by an entry give the natural chain unless they say otherwise; changes in a name come on top.
UniProt Q8TCU6: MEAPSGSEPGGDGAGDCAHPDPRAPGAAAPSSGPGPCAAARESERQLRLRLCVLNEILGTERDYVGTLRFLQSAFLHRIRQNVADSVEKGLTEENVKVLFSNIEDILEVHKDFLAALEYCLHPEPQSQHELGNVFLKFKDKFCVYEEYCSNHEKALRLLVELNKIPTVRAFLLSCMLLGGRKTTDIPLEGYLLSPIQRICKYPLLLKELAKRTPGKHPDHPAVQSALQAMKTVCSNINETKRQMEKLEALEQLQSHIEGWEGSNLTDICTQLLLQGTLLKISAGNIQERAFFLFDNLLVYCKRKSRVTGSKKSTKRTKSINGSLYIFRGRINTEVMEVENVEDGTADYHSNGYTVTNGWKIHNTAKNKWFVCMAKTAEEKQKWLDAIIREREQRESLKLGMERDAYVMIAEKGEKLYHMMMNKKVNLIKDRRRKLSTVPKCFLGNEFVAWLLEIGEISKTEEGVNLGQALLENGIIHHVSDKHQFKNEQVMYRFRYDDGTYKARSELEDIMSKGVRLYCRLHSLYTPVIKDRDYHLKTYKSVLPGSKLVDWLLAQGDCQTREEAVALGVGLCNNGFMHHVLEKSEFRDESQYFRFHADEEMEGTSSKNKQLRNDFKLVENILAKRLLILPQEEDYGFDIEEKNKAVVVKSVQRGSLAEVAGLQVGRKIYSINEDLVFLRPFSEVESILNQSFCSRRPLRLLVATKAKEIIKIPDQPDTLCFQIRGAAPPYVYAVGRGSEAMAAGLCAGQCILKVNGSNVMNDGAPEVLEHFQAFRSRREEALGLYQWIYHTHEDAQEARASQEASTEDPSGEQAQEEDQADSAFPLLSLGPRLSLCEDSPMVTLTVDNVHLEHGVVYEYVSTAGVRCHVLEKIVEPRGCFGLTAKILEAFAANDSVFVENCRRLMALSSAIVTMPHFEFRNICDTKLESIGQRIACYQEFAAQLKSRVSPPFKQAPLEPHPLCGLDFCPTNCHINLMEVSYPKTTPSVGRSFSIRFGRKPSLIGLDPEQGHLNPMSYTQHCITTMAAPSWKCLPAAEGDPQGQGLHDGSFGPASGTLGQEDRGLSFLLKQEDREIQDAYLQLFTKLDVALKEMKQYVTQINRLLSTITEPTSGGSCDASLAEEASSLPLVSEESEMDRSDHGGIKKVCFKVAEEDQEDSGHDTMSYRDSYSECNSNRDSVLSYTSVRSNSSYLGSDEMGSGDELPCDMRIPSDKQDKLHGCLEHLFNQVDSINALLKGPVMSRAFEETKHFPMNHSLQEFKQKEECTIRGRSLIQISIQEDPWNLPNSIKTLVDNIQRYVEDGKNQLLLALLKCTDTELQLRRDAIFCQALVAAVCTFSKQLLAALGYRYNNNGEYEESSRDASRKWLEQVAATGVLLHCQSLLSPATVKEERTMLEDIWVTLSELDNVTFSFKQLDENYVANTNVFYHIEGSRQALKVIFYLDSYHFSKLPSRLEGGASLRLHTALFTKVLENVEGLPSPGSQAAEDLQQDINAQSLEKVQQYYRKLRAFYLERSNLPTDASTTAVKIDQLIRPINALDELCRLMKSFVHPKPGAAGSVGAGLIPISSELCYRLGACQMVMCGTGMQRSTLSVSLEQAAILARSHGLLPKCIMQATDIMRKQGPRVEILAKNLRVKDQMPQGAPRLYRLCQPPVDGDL

No constants are given. Whether binding was seen depends on the method and setting. In cells and extracts the contact can be indirect. A result given as binding can be weak or reduced; the word gives no strength. Where a sequence is shown, tags or fusion partners need not be part of it.

For the substance “Myc-tagged P-Rex1 GEF* (GEF-dead mutant) (from UniProt Q8TCU6)”, the binding result is on record as “binds”.

The values are drawn from paper PMC4759627.
